# Reference: the supplement of paper PMC8728848
# The list shows a part of the results.
# B1: HFR-3 (Triticum aestivum) (protein)
# chain: MKGLLLCALALAFAAVTTHAQLQSCPTRCGKQADGMECPNNLCCSKDGYCGLGVDYCSAGAGCQSGACYDNKICGAQANGTLCRNNHCCSSGGRCGYGREYCSNGCQGGPCWADLKCGHLDNGKLCPNNLCCSQYGYCGLGPEFCGTGCQNGACSTDKPCGNKANGAPCTNNYCCSQYGSCGLGKDYCGTGCQNGACN
# Assays:
# Experiment in all cases: glycan array binding signal (z-score within array); higher = stronger binding
# Conditions in all cases: glycan notation: IUPAC condensed, linker removed
# Fuc(a1-2)Gal = biological target: Fuc(a1-2)Gal
# Method in brief: (§1)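 Glycan array binding is given as a within-array Z-score, which can be read as non-binding when negative. The arrays, 3228 of them, came from the Consortium for Functional Glycomics database and were retained only where the protein sequence was available. Z-scores were averaged across arrays of the same protein sequence at different concentrations or buffers and across linkers.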
# Fuc(a1-2)Gal(b1-3)GalNAc = biological target: Fuc(a1-2)Gal(b1-3)GalNAc
# Method in brief: as §1
# [1] = biological target: Fuc(a1-2)Gal(b1-3)GalNAc(a1-3)[Fuc(a1-2)]Gal(b1-4)Glc
# Method in brief: as §1
# [2] = biological target: Fuc(a1-2)Gal(b1-3)GalNAc(a1-3)[Fuc(a1-2)]Gal(b1-4)GlcNAc
# Method in brief: as §1
# [3] = biological target: Fuc(a1-2)Gal(b1-3)GalNAc(b1-3)Gal
# Method in brief: as §1
# [4] = biological target: Fuc(a1-2)Gal(b1-3)GalNAc(b1-3)Gal(a1-4)Gal(b1-4)Glc
# Method in brief: as §1
# [5] = biological target: Fuc(a1-2)Gal(b1-3)GalNAc(b1-4)[Neu5Ac(a2-3)]Gal(b1-4)Glc
# Method in brief: as §1
# Fuc(a1-2)Gal(b1-3)GlcNAc = biological target: Fuc(a1-2)Gal(b1-3)GlcNAc
# Method in brief: as §1
# [6] = biological target: Fuc(a1-2)Gal(b1-3)GlcNAc(b1-2)Man(a1-3)[Fuc(a1-2)Gal(b1-3)GlcNAc(b1-2)Man(a1-6)]Man(b1-4)GlcNAc(b1-4)GlcNAc
# Method in brief: as §1
# [7] = biological target: Fuc(a1-2)Gal(b1-3)GlcNAc(b1-2)Man(a1-3)[Fuc(a1-2)Gal(b1-3)GlcNAc(b1-2)Man(a1-6)]Man(b1-4)GlcNAc(b1-4)[Fuc(a1-6)]GlcNAc
# Method in brief: as §1
# [8] = biological target: Fuc(a1-2)Gal(b1-3)GlcNAc(b1-3)Gal(b1-4)Glc
# Method in brief: as §1
# [9] = biological target: Fuc(a1-2)Gal(b1-3)GlcNAc(b1-3)GalNAc
# Method in brief: as §1
# [10] = biological target: Fuc(a1-2)Gal(b1-3)GlcNAc(b1-3)[Fuc(a1-2)Gal(b1-3)GlcNAc(b1-6)]GalNAc
# Method in brief: as §1
# [11] = biological target: Fuc(a1-2)Gal(b1-3)GlcNAc(b1-3)[Gal(b1-4)GlcNAc(b1-6)]Gal(b1-4)Glc
# Method in brief: as §1
# [12] = biological target: Fuc(a1-2)Gal(b1-3)GlcNAc(b1-3)[Neu5Ac(a2-6)Gal(b1-4)GlcNAc(b1-6)]Gal(b1-4)Glc
# Method in brief: as §1
# [13] = biological target: Fuc(a1-2)Gal(b1-3)GlcNAc6S
# Method in brief: as §1
# [14] = biological target: Fuc(a1-2)Gal(b1-3)[Fuc(a1-4)]GlcNAc
# Method in brief: as §1
# [15] = biological target: Fuc(a1-2)Gal(b1-3)[Fuc(a1-4)]GlcNAc(b1-2)Man(a1-3)[Fuc(a1-2)Gal(b1-3)[Fuc(a1-4)]GlcNAc(b1-2)Man(a1-3)]Man(b1-4)GlcNAc(b1-4)GlcNAc
# Method in brief: as §1
# [16] = biological target: Fuc(a1-2)Gal(b1-3)[Fuc(a1-4)]GlcNAc(b1-2)Man(a1-3)[Fuc(a1-2)Gal(b1-3)[Fuc(a1-4)]GlcNAc(b1-2)Man(a1-6)]Man(b1-4)GlcNAc(b1-4)[Fuc(a1-6)]GlcNAc(b1-4)[Fuc(a1-6)]GlcNAc
# Method in brief: as §1
# [17] = biological target: Fuc(a1-2)Gal(b1-3)[Fuc(a1-4)]GlcNAc(b1-3)[Fuc(a1-3)[Gal(b1-4)]GlcNAc(b1-6)]Gal(b1-4)Glc
# Method in brief: as §1
# [18] = biological target: Fuc(a1-2)Gal(b1-3)[Fuc(a1-4)]GlcNAc(b1-3)[Gal(b1-4)GlcNAc(b1-6)]Gal(b1-4)Glc
# Method in brief: as §1
# Fuc(a1-2)Gal(b1-4)Glc = biological target: Fuc(a1-2)Gal(b1-4)Glc
# Method in brief: as §1
# Fuc(a1-2)Gal(b1-4)Glc6S = biological target: Fuc(a1-2)Gal(b1-4)Glc6S
# Method in brief: as §1
# Fuc(a1-2)Gal(b1-4)GlcNAc = biological target: Fuc(a1-2)Gal(b1-4)GlcNAc
# Method in brief: as §1
# [19] = biological target: Fuc(a1-2)Gal(b1-4)GlcNAc(b1-2)Man
# Method in brief: as §1
# [20] = biological target: Fuc(a1-2)Gal(b1-4)GlcNAc(b1-2)Man(a1-3)[Fuc(a1-2)Gal(b1-4)GlcNAc(b1-2)Man(a1-6)]Man(b1-4)GlcNAc(b1-4)GlcNAc
# Method in brief: as §1
# [21] = biological target: Fuc(a1-2)Gal(b1-4)GlcNAc(b1-2)Man(a1-3)[Fuc(a1-2)Gal(b1-4)GlcNAc(b1-2)Man(a1-6)]Man(b1-4)GlcNAc(b1-4)[Fuc(a1-6)]GlcNAc
# Method in brief: as §1
# [22] = biological target: Fuc(a1-2)Gal(b1-4)GlcNAc(b1-2)[Fuc(a1-2)Gal(b1-4)GlcNAc(b1-4)]Man(a1-3)[Fuc(a1-2)Gal(b1-4)GlcNAc(b1-2)Man(a1-6)]Man(b1-4)GlcNAc(b1-4)GlcNAc
# Method in brief: as §1
# [23] = biological target: Fuc(a1-2)Gal(b1-4)GlcNAc(b1-3)Gal(b1-4)GlcNAc
# Method in brief: as §1
# [24] = biological target: Fuc(a1-2)Gal(b1-4)GlcNAc(b1-3)Gal(b1-4)GlcNAc(b1-2)Man(a1-3)[Fuc(a1-2)Gal(b1-4)GlcNAc(b1-3)Gal(b1-4)GlcNAc(b1-2)Man(a1-6)]Man(b1-4)GlcNAc(b1-4)GlcNAc
# Method in brief: as §1
binder,measurement,setting,value
B1,glycan array binding signal (z-score),Fuc(a1-2)Gal,-0.524
same,glycan array binding signal (z-score),Fuc(a1-2)Gal(b1-3)GalNAc,-0.596
same,glycan array binding signal (z-score),[1],-1.27
same,glycan array binding signal (z-score),[2],-1.27
same,glycan array binding signal (z-score),[3],-0.52
same,glycan array binding signal (z-score),[4],0.317
same,glycan array binding signal (z-score),[5],0.436
same,glycan array binding signal (z-score),Fuc(a1-2)Gal(b1-3)GlcNAc,-0.135
same,glycan array binding signal (z-score),[6],1.72
same,glycan array binding signal (z-score),[7],0.39
same,glycan array binding signal (z-score),[8],-0.404
same,glycan array binding signal (z-score),[9],0.672
same,glycan array binding signal (z-score),[10],-0.006
same,glycan array binding signal (z-score),[11],0.386
same,glycan array binding signal (z-score),[12],-1.35
same,glycan array binding signal (z-score),[13],0.193
same,glycan array binding signal (z-score),[14],0.192
same,glycan array binding signal (z-score),[15],1.44
same,glycan array binding signal (z-score),[16],-0.513
same,glycan array binding signal (z-score),[17],-0.893
same,glycan array binding signal (z-score),[18],-0.266
same,glycan array binding signal (z-score),Fuc(a1-2)Gal(b1-4)Glc,-0.478
same,glycan array binding signal (z-score),Fuc(a1-2)Gal(b1-4)Glc6S,0.283
same,glycan array binding signal (z-score),Fuc(a1-2)Gal(b1-4)GlcNAc,0.484
same,glycan array binding signal (z-score),[19],-0.828
same,glycan array binding signal (z-score),[20],-0.43
same,glycan array binding signal (z-score),[21],-0.7
same,glycan array binding signal (z-score),[22],0.313
same,glycan array binding signal (z-score),[23],-0.482
same,glycan array binding signal (z-score),[24],1.66

# Some of the entries so far, with bars between the fields:
binder | measurement | setting | value
B1 | glycan array binding signal (z-score) | Fuc(a1-2)Gal(b1-3)GalNAc | -0.596
same | glycan array binding signal (z-score) | Fuc(a1-2)Gal(b1-3)GlcNAc | -0.135
